Experimental data taken from publication PMC7694386.
These are yes or no findings as the source states them, for the method shown. In cells and extracts the contact can be indirect. Here binding means that the protein was enriched with, or labelled near, the bait; the list need not be complete.

Chains of the proteins cited; added tags and fusions are not shown.
UniProt O95817: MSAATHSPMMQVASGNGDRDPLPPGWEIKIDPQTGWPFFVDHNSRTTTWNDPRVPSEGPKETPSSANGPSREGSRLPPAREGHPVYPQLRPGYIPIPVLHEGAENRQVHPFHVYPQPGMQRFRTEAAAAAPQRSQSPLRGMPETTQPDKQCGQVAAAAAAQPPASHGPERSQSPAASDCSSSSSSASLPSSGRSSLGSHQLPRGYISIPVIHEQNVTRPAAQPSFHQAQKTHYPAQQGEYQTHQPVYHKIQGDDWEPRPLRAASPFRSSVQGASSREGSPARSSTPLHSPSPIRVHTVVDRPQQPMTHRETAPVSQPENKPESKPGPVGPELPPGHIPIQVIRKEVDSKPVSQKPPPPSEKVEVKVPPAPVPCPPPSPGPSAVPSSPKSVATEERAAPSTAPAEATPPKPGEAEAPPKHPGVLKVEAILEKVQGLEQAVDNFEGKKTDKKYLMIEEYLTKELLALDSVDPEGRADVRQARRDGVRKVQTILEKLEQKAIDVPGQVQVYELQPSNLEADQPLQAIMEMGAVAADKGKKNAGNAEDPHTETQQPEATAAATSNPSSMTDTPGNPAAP

B1: APRT (protein, UniProt P07741 1-180)
chain: MADSELQLVEQRIRSFPDFPTPGVVFRDISPVLKDPASFRAAIGLLARHLKATHGGRIDYIAGLDSRGFLFGPSLAQELGLGCVLIRKRGKLPGPTLWASYSLEYGKAELEIQKDALEPGQRVVVVDDLLATGGTMNAACELLGRLQAEVLECVSLVELTSLKGREKLAPVPFFSLLQYE
B2: PFAS (protein, UniProt O15067 1-1338)
chain: MSPVLHFYVRPSGHEGAAPGHTRRKLQGKLPELQGVETELCYNVNWTAEALPSAEETKKLMWLFGCPLLLDDVARESWLLPGSNDLLLEVGPRLNFSTPTSTNIVSVCRATGLGPVDRVETTRRYRLSFAHPPSAEVEAIALATLHDRMTEQHFPHPIQSFSPESMPEPLNGPINILGEGRLALEKANQELGLALDSWDLDFYTKRFQELQRNPSTVEAFDLAQSNSEHSRHWFFKGQLHVDGQKLVHSLFESIMSTQESSNPNNVLKFCDNSSAIQGKEVRFLRPEDPTRPSRFQQQQGLRHVVFTAETHNFPTGVCPFSGATTGTGGRIRDVQCTGRGAHVVAGTAGYCFGNLHIPGYNLPWEDPSFQYPGNFARPLEVAIEASNGASDYGNKFGEPVLAGFARSLGLQLPDGQRREWIKPIMFSGGIGSMEADHISKEAPEPGMEVVKVGGPVYRIGVGGGAASSVQVQGDNTSDLDFGAVQRGDPEMEQKMNRVIRACVEAPKGNPICSLHDQGAGGNGNVLKELSDPAGAIIYTSRFQLGDPTLNALEIWGAEYQESNALLLRSPNRDFLTHVSARERCPACFVGTITGDRRIVLVDDRECPVRRNGQGDAPPTPLPTPVDLELEWVLGKMPRKEFFLQRKPPMLQPLALPPGLSVHQALERVLRLPAVASKRYLTNKVDRSVGGLVAQQQCVGPLQTPLADVAVVALSHEELIGAATALGEQPVKSLLDPKVAARLAVAEALTNLVFALVTDLRDVKCSGNWMWAAKLPGEGAALADACEAMVAVMAALGVAVDGGKDSLSMAARVGTETVRAPGSLVISAYAVCPDITATVTPDLKHPEGRGHLLYVALSPGQHRLGGTALAQCFSQLGEHPPDLDLPENLVRAFSITQGLLKDRLLCSGHDVSDGGLVTCLLEMAFAGNCGLQVDVPVPRVDVLSVLFAEEPGLVLEVQEPDLAQVLKRYRDAGLHCLELGHTGEAGPHAMVRVSVNGAVVLEEPVGELRALWEETSFQLDRLQAEPRCVAEEERGLRERMGPSYCLPPTFPKASVPREPGGPSPRVAILREEGSNGDREMADAFHLAGFEVWDVTMQDLCSGAIGLDTFRGVAFVGGFSYADVLGSAKGWAAAVTFHPRAGAELRRFRKRPDTFSLGVCNGCQLLALLGWVGGDPNEDAAEMGPDSQPARPGLLLRHNLSGRYESRWASVRVGPGPALMLRGMEGAVLPVWSAHGEGYVAFSSPELQAQIEARGLAPLHWADDDGNPTEQYPLNPNGSPGGVAGICSCDGRHLAVMPHPERAVRPWQWAWRPPPFDTLTTSPWLQLFINARNWTLEGSC
B3: small HSP HSPB8 (protein, UniProt Q9UJY1 1-196)
chain: MADGQMPFSCHYPSRLRRDPFRDSPLSSRLLDDGFGMDPFPDDLTASWPDWALPRLSSAWPGTLRSGMVPRGPTATARFGVPAEGRTPPPFPGEPWKVCVNVHSFKPEELMVKTKDGYVEVSGKHEEKQQEGGIVSKNFTKKIQLPAEVDPVTVFASLSPEGLLIIEAPQVPPYSTFGESSFNNELPQDSQEVTCT
B4: BTB/POZ domain-containing protein KCTD1 (protein, UniProt Q719H9 1-257)
chain: MSRPLITRSPASPLNNQGIPTPAQLTKSNAPVHIDVGGHMYTSSLATLTKYPESRIGRLFDGTEPIVLDSLKQHYFIDRDGQMFRYILNFLRTSKLLIPDDFKDYTLLYEEAKYFQLQPMLLEMERWKQDRETGRFSRPCECLVVRVAPDLGERITLSGDKSLIEEVFPEIGDVMCNSVNAGWNHDSTHVIRFPLNGYCHLNSVQVLERLQQRGFEIVGSCGGGVDSSQFSEYVLRRELRRTPRVPSVIRIKQEPLD
B5: NUFIP2 (protein, UniProt Q7Z417 1-695)
chain: MEEKPGQPQPQHHHSHHHPHHHPQQQQQQPHHHHHYYFYNHSHNHHHHHHHQQPHQYLQHGAEGSPKAQPKPLKHEQKHTLQQHQETPKKKTGYGELNGNAGEREISLKNLSSDEATNPISRVLNGNQQVVDTSLKQTVKANTFGKAGIKTKNFIQKNSMDKKNGKSYENKSGENQSVDKSDTIPIPNGVVTNNSGYITNGYMGKGADNDGSGSESGYTTPKKRKARRNSAKGCENLNIVQDKIMQQETSVPTLKQGLETFKPDYSEQKGNRVDGSKPIWKYETGPGGTSRGKPAVGDMLRKSSDSKPGVSSKKFDDRPKGKHASAVASKEDSWTLFKPPPVFPVDNSSAKIVPKISYASKVKENLNKTIQNSSVSPTSSSSSSSSTGETQTQSSSRLSQVPMSALKSVTSANFSNGPVLAGTDGNVYPPGGQPLLTTAANTLTPISSGTDSVLQDMSLTSAAVEQIKTSLFIYPSNMQTMLLSTAQVDLPSQTDQQNLGDIFQNQWGLSFINEPSAGPETVTGKSSEHKVMEVTFQGEYPATLVSQGAEIIPSGTEHPVFPKAYELEKRTSPQVLGSILKSGTTSESGALSLEPSHIGDLQKADTSSQGALVFLSKDYEIESQNPLASPTNTLLGSAKEQRYQRGLERNDSWGSFDLRAAIVYHTKEMESIWNLQKQDPKRIITYNEAMDSPDQ
B6: MCM5 (protein, UniProt P33992 1-734)
chain: MSGFDDPGIFYSDSFGGDAQADEGQARKSQLQRRFKEFLRQYRVGTDRTGFTFKYRDELKRHYNLGEYWIEVEMEDLASFDEDLADYLYKQPAEHLQLLEEAAKEVADEVTRPRPSGEEVLQDIQVMLKSDASPSSIRSLKSDMMSHLVKIPGIIIAASAVRAKATRISIQCRSCRNTLTNIAMRPGLEGYALPRKCNTDQAGRPKCPLDPYFIMPDKCKCVDFQTLKLQELPDAVPHGEMPRHMQLYCDRYLCDKVVPGNRVTIMGIYSIKKFGLTTSRGRDRVGVGIRSSYIRVLGIQVDTDGSGRSFAGAVSPQEEEEFRRLAALPNVYEVISKSIAPSIFGGTDMKKAIACLLFGGSRKRLPDGLTRRGDINLLMLGDPGTAKSQLLKFVEKCSPIGVYTSGKGSSAAGLTASVMRDPSSRNFIMEGGAMVLADGGVVCIDEFDKMREDDRVAIHEAMEQQTISIAKAGITTTLNSRCSVLAAANSVFGRWDETKGEDNIDFMPTILSRFDMIFIVKDEHNEERDVMLAKHVITLHVSALTQTQAVEGEIDLAKLKKFIAYCRVKCGPRLSAEAAEKLKNRYIIMRSGARQHERDSDRRSSIPITVRQLEAIVRIAEALSKMKLQPFATEADVEEALRLFQVSTLDAALSGTLSGVEGFTSQEDQEMLSRIEKQLKRRFAIGSQVSEHSIIKDFTKQKYPEHAIHKVLQLMLRRGEIQHRMQRKVLYRLK
B7: Rab11 family-interacting protein 1 (protein, UniProt Q6WKZ4 1-1283)
chain: MSLMVSAGRGLGAVWSPTHVQVTVLQARGLRAKGPGGTSDAYAVIQVGKEKYATSVSERSLGAPVWREEATFELPSLLSSGPAAAATLQLTVLHRALLGLDKFLGRAEVDLRDLHRDQGRRKTQWYKLKSKPGKKDKERGEIEVDIQFMRNNMTASMFDLSMKDKSRNPFGKLKDKIKGKNKDSGSDTASAIIPSTTPSVDSDDESVVKDKKKKSKIKTLLSKSNLQKTPLSQSMSVLPTSKPEKVLLRPGDFQSQWDEDDNEDESSSASDVMSHKRTASTDLKQLNQVNFTLPKKEGLSFLGGLRSKNDVLSRSNVCINGNHVYLEQPEAKGEIKDSSPSSSPSPKGFRKKHLFSSTENLAAGSWKEPAEGGGLSSDRQLSESSTKDSLKSMTLPSYRPAPLVSGDLRENMAPANSEATKEAKESKKPESRRSSLLSLMTGKKDVAKGSEGENPLTVPGREKEGMLMGVKPGEDASGPAEDLVRRSEKDTAAVVSRQGSSLNLFEDVQITEPEAEPESKSEPRPPISSPRAPQTRAVKPRLEVSPEAQPTARLPSPTDSPSSLPPLPSSSGQASVPSELGHGADTQSSESPSVFSSLSSPIAAPISTSTPIESWPLVDRGQAKSEGPPLLPKAELQTESLTPVPNSGSSALGSLFKQPSFPANKGTEDSLMGRTRETGTEKNTSSLELEESLPEQPETGRQEEELPRFPCKKQDYSPSSGEAQEVPFALSLSSDGAVSPVGELAAGGDRDLESQAGSLVESKARDAAEEVAPPLPMGASVPSIDSMMRKLEEMGLNLRKDQKKTKKRVSFSEQLFTEEAVAGAALLVEGHSSCPQELNPAWSVAGNASDGEPPESPHAEDSERESVTTPGPATCGAPASPADHLLLPSQEESFSEVPMSEASSAKDTPLFRMEGEDALVTQYQSKASDHEGLLSDPLSDLQLVSDFKSPIMADLNLSLPSIPEVASDDERIDQVEDDGDQVEDDGETAKSSTLDIGALSLGLVVPCPERGKGPSGEADRLVLGEGLCDFRLQAPQASVTAPSEQTTEFGIHKPHLGKSSSLDKQLPGPSGGEEEKPMGNGSPSPPPGTSLDNPVPSPSPSEIFPVTHSFPSSAHSDTHHTSTAESQKKATAEGSAGRVENFGKRKPLLQAWVSPSETHPVSAQPGAGTGSAKHRLHPVKPMNAMATKVANCSLGTATIISENLNNEVMMKKYSPSDPAFAYAQLTHDELIQLVLKQKETISKKEFQVRELEDYIDNLLVRVMEETPNILRIPTQVGKKAGKM
B8: tRNA-splicing ligase RtcB homolog (protein, UniProt Q9Y3I0 1-505)
chain: MSRSYNDELQFLEKINKNCWRIKKGFVPNMQVEGVFYVNDALEKLMFEELRNACRGGGVGGFLPAMKQIGNVAALPGIVHRSIGLPDVHSGYGFAIGNMAAFDMNDPEAVVSPGGVGFDINCGVRLLRTNLDESDVQPVKEQLAQAMFDHIPVGVGSKGVIPMNAKDLEEALEMGVDWSLREGYAWAEDKEHCEEYGRMLQADPNKVSARAKKRGLPQLGTLGAGNHYAEIQVVDEIFNEYAAKKMGIDHKGQVCVMIHSGSRGLGHQVATDALVAMEKAMKRDKIIVNDRQLACARIASPEGQDYLKGMAAAGNYAWVNRSSMTFLTRQAFAKVFNTTPDDLDLHVIYDVSHNIAKVEQHVVDGKERTLLVHRKGSTRAFPPHHPLIAVDYQLTGQPVLIGGTMGTCSYVLTGTEQGMTETFGTTCHGAGRALSRAKSRRNLDFQDVLDKLADMGIAIRVASPKLVMEEAPESYKNVTDVVNTCHDAGISKKAIKLRPIAVIKG
B9: PMF1 (protein, UniProt Q6P1K2 1-205)
chain: MAEASSANLGSGCEEKRHEGSSSESVPPGTTISRVKLLDTMVDTFLQKLVAAGSYQRFTDCYKCFYQLQPAMTQQIYDKFIAQLQTSIREEISDIKEEGNLEAVLNALDKIVEEGKVRKEPAWRPSGIPEKDLHSVMAPYFLQQRDTLRRHVQKQEAENQQLADAVLAGRRQVEELQLQVQAQQQAWQALHREQRELVAVLREPE
B10: Peptidyl-prolyl cis-trans isomerase FKBP4 (protein, UniProt Q02790 1-459)
chain: MTAEEMKATESGAQSAPLPMEGVDISPKQDEGVLKVIKREGTGTEMPMIGDRVFVHYTGWLLDGTKFDSSLDRKDKFSFDLGKGEVIKAWDIAIATMKVGEVCHITCKPEYAYGSAGSPPKIPPNATLVFEVELFEFKGEDLTEEEDGGIIRRIQTRGEGYAKPNEGAIVEVALEGYYKDKLFDQRELRFEIGEGENLDLPYGLERAIQRMEKGEHSIVYLKPSYAFGSVGKEKFQIPPNAELKYELHLKSFEKAKESWEMNSEEKLEQSTIVKERGTVYFKEGKYKQALLQYKKIVSWLEYESSFSNEEAQKAQALRLASHLNLAMCHLKLQAFSAAIESCNKALELDSNNEKGLFRRGEAHLAVNDFELARADFQKVLQLYPNNKAAKTQLAVCQQRIRRQLAREKKLYANMFERLAEEENKAKAEASSGDHPTDTEMKEEQKSNTAGSQSQVETEA

Molecular target: BAG3 (BCL-2-associated athanogene 3) (human (endogenous in HEK293T)) (UniProt O95817)
Assay: affinity purification with mass spectrometry; endogenous BAG3 immunoprecipitated with anti-BAG3 antibody and Protein A/G magnetic beads from HEK293T lysate; cells treated with DMSO (basal) or 10 µM MG132 for 6 h; IgG IP (MG132_IgG) as control; label-free quantification, three biological replicates

binding, binds:
B1, B2, B3, B4, B5, B6, B7, B8, B9, B10
